Experimental data from publication doi:10.1101/577437.
No constants are given. Whether binding was seen depends on the method and setting.

Chains of the proteins cited; added tags and fusions are not shown. Residues count along the entry.
UniProt P84095, residues 1-179: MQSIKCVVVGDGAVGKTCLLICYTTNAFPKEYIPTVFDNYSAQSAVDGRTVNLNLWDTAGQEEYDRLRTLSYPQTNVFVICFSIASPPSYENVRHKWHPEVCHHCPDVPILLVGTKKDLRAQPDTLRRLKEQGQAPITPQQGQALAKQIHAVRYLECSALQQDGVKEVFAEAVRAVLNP
UniProt Q15311, residues 395-517: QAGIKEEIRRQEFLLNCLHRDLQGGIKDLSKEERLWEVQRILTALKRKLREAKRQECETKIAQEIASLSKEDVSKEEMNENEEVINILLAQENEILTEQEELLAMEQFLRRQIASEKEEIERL
UniProt P15056, residues 150-233: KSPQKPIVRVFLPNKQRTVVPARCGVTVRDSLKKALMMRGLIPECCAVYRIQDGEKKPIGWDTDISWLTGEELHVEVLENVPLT

Tests used:
[1] = target: HRAS wild-type (residues 1-171) (UniProt P01112); test: NMR titration
RHOG (residues 1-179) = RHOG (residues 1-179) (UniProt P84095); test: NMR titration

| binding [1] | binding (RHOG (residues 1-179)) | Substance |
| --- | --- | --- |
| no binding |  | human RLIP76 RBD (residues 395-517) (from UniProt Q15311 395-517) (domain or fragment) |
|  | no binding | human BRAF RBD (residues 150-233) (from UniProt P15056 150-233) (domain or fragment) |
